Measurements from patent US5516759A, “LHRH antagonists having lactam groups at the N-terminus” (TAP Holdings Inc., priority 1994, dated 1996).
At least one structure is not confirmed: it was looked up by name or label, or the drawing left a doubt. Where a SMILES comes first, the peptide text is derived from it. [ ]: non-standard residue; d: D form. The star is where a group is joined. d2Nal(N,N-(CH2)3CO) = O=C1CCCN1[C@H](Cc1ccc2ccccc2c1)C(=O)*; dPhe(4-Cl) = N[C@H](Cc1ccc(Cl)cc1)C(=O)O; dCit = NC(=O)NCCC[C@@H](N)C(=O)O; d3Pal = N[C@H](Cc1cccnc1)C(=O)O

Target: T1, LHRH (Rattus norvegicus, UniProt P30969)
T1 construct: endogenous in cells
T1 sequence (P30969 1-327): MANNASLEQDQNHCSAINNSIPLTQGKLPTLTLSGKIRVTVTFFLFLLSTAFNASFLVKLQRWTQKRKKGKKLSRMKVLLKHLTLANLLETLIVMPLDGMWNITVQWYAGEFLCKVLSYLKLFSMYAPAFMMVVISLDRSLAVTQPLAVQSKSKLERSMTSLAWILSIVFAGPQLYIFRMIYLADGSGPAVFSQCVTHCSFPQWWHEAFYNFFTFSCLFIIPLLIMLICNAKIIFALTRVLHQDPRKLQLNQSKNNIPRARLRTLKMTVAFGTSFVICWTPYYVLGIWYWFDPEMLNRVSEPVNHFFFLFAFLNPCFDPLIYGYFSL
Test: in vitro test for LHRH antagonist potency (pA2)
Assay type: cell-based
Details: negative logarithm of the antagonist concentration required to shift the response curve produced by the agonist leuprolide to two-fold higher concentration
Method: Representative compounds of the present invention were evaluated in an in vitro test for LHRH antagonist potency (pA2). The test employed the method detailed in F. Haviv, et al. J. Med. Chem., 32:2340-2344 (1989). The values of pA2 are the negative logarithms of the concentration of the particular antagonist test compound required to shift the response curve produced by the agonist leuprolide to two-fold higher concentration. (Leuprolide is disclosed and claimed in U.S. Pat. No. 4,005,063.) Typically pA2 values of 9.5 or greater are indicative of good LHRH antagonist potency, with values of 10.0 or greater being preferred.

## CC(C)C[C@H](NC(=O)[C@@H](CCCNC(N)=O)NC(=O)[C@H](Cc1ccc(O)cc1)NC(=O)[C@H](CO)NC(=O)[C@@H](Cc1cccnc1)NC(=O)[C@@H](Cc1ccc(Cl)cc1)NC(=O)[C@@H](Cc1ccc2ccccc2c1)N1CCCC1=O)C(=O)N[C@@H](CCCNC(=N)N)C(=O)N1CCC[C@H]1C(=O)N[C@H](C)C(N)=O [Example 6, 5LactD2Nal^1 -D4ClPhe^2 -D3Pal^3 -Ser^4 -Tyr^5 -DCit^6 -Leu^7 -Arg^8 -Pro^9 -DAla^10 NH2] ({d2Nal(N,N-(CH2)3CO)}-[dPhe(4-Cl)][d3Pal]SY[dCit]LRP[dA]-NH2)
  pA2: 10.82
